Measured data: PubChem BioAssay AID652243 (Drosophila RNAi Screening Center, 2013)

Purpose: 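Fly genes required for human androgen receptor driven transcription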 (primary screen)
Cell system: Drosophila S2R+ cells
Knock-down reagent: long dsRNA against Drosophila genes
Duration: 72 h (48 h, then 24 h hormone)
Treatment: synthetic androgen R1881 at 10 nM for 24 h
Measured: 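Firefly light from an androgen-responsive reporter and Renilla control light per well, raw and unnormalised, for each of two replicates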
Direction: firefly reporter light: higher = more light from androgen-responsive reporter; Renilla control light: higher = more constitutive control signal (cell number, transfection)
Rule for the call: 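Across duplicate plates, a knock-down whose log firefly/Renilla ratio shifted a set fold down or up from the GFP/LacZ control mean was a hit; the downward cut appears as both 1.5 and 3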
Calls: active = hit: reporter lowered or raised; inactive = no hit
In all, the deposit lists about 24,000 reagents; shown is an unselected part of those with a known target gene and a result. Over the whole deposit, 246 (1%) got an active call. 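Plates not normalised; calls are printed but the firefly/Renilla ratio behind them is not deposited; fold cut for lowering reported inconsistently.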 The raw values are shown without normalisation. A number with no mark means an inactive call. Names joined by + are all predicted targets of the reagent. No sequences are given here. The record does not give: the amount of reagent.

no.	predicted target	dsRNA	firefly reporter light, replicate 1	firefly reporter light, replicate 2	Renilla control light, replicate 1	Renilla control light, replicate 2
1	CG17300 (GeneID 39489)	DRSC10260	3.61e5	2.63e5	2.59e6	2.22e6
2	CG17300 (GeneID 39489)	DRSC28904	3.72e5	2.85e5	1.01e6	1.14e6
3	Buffy (GeneID 36251)	DRSC05957	3.49e5	3.24e5	2.06e6	1.79e6
4	Ir31a (GeneID 318912)	DRSC22358	7.49e5	7.69e5	2.21e6	2.43e6
5	loj (GeneID 38698)	DRSC09791	9.07e5	7.77e5	1.42e6	1.29e6
6	CG15357 (GeneID 50192)	DRSC00387	1.36e5	1.39e5	8.22e5	1.04e6
7	Desat1 (GeneID 117369)	DRSC16668	64135	60708	1.26e6	1.02e6
8	Desat1 (GeneID 117369)	DRSC23578	2.97e5	2.70e5	3.65e5	3.85e5
9	CG8841 (GeneID 36336)	DRSC07286	1.05e6	1.12e6	9.98e5	1.29e6
10	CG31233 (GeneID 42557)	DRSC15888	2.22e5	2.46e5	4.24e6	4.57e6
11	Hen1 (GeneID 36301)	DRSC06139	1.15e6	1.03e6	1.80e6	1.71e6
12	Hen1 (GeneID 36301)	DRSC06140	1.98e5	1.77e5	1.04e6	1.19e6
13	Hen1 (GeneID 36301)	DRSC26993	4.01e5	2.89e5	1.11e6	8.71e5
14	CG2811 (GeneID 37988)	DRSC04318	3.20e5	2.82e5	1.81e6	1.31e6
15	Cln7 (GeneID 38813)	DRSC11005	1.19e6	4.49e5	2.08e6	1.58e6
16	CG11147 (GeneID 33803)	DRSC02129	1.96e5	1.73e5	1.71e6	1.38e6
17	inaF-B + inaF-D + inaF-C + 1 more	DRSC20342	3.69e5	3.74e5	3.67e6	3.82e6
18	inaF-B + inaF-D + inaF-C + 1 more	DRSC28607	7.82e5	4.05e5	1.81e6	1.46e6
19	CG9168 (GeneID 38163)	DRSC08633	64459	60238	8.02e5	8.68e5
20	lncRNA:CR31526 (GeneID 318783)	DRSC21520	9.02e5	6.88e5	8.28e5	6.84e5
21	lncRNA:CR31526 (GeneID 318783)	DRSC26871	6.61e5	4.21e5	1.24e6	6.48e5
22	lncRNA:CR31526 (GeneID 318783)	DRSC39088	7.33e5	5.29e5	1.89e6	1.92e6
23	cer (GeneID 37229)	DRSC05992	1.01e5	1.89e5	2.00e6	2.45e6
24	CG4293 (GeneID 31001)	DRSC18557	46925	65248	5.26e5	3.83e5
25	lncRNA:CR30121 (GeneID 12798336)	DRSC21481	1.08e6	9.00e5	1.65e6	1.03e6
26	lncRNA:CR30121 (GeneID 12798336)	DRSC27254	2.84e5	2.56e5	6.57e5	6.64e5
27	Teh4 (GeneID 38501)	DRSC08457	1.89e5	1.29e5	2.73e6	1.63e6
28	Taf9 (GeneID 32762)	DRSC20326	58793	1.36e5	4.54e5	5.03e5
29	Taf9 (GeneID 32762)	DRSC25903	3.88e5	4.01e5	7.49e5	6.51e5
30	CG15435 (GeneID 33655)	DRSC00450	85589	83283	7.06e5	7.15e5
31	CG15435 (GeneID 33655)	DRSC27701	2.08e5	2.20e5	4.94e5	6.77e5
32	CG6678 (GeneID 42581)	DRSC16092	1.01e5	1.22e5	6.81e5	8.56e5
33	CG6678 (GeneID 42581)	DRSC27398	5.42e5	4.06e5	6.79e5	8.02e5
34	CG8176 (GeneID 261329)	DRSC16394	91340	91328	1.74e6	1.55e6
35	msopa (GeneID 45962)	DRSC23240	6.91e5	7.70e5	1.67e6	1.14e6
36	CG4301 (GeneID 32610)	DRSC19886	1.82e5	2.21e5	2.63e6	2.28e6
37	Obp50e (GeneID 36600)	DRSC06434	1.44e5	1.35e5	2.49e6	2.49e6
38	mRpS18A (GeneID 326141)	DRSC14369	59665	92648	1.82e6	1.93e6
39	CG17108 (GeneID 34471)	DRSC02576	2.27e5	2.82e5	2.46e6	2.82e6
40	CG17108 (GeneID 34471)	DRSC22214	4.35e5	4.28e5	1.20e6	1.04e6
41	CG17108 (GeneID 34471)	DRSC25301	8.31e5	5.93e5	1.42e6	1.21e6
42	Nadsyn (GeneID 32328)	DRSC20222	1.03e5	88273	5.51e5	5.69e5
43	Tsp3A (GeneID 31244)	DRSC18656	2.78e5	1.67e5	3.81e6	2.64e6
44	Tsp3A (GeneID 31244)	DRSC25654	3.42e5	2.85e5	1.16e6	8.77e5
45	SelG (GeneID 32149)	DRSC19808	1.05e5	97524	1.15e6	9.46e5
46	SelG (GeneID 32149)	DRSC25206	2.85e5	3.01e5	1.10e6	5.87e5
47	CG31867 (GeneID 261614)	DRSC03338	1.22e5	99091	1.04e6	8.67e5
48	CR1075 (GeneID 12798037)	DRSC12144	58697	68835	1.60e6	1.27e6
49	Vha55 (GeneID 41550)	DRSC16896	44511	45410	3.29e5	4.95e5
50	Vha55 (GeneID 41550)	DRSC26184	2.46e5	3.55e5	7.02e5	6.17e5
51	galene (GeneID 38133)	DRSC08640	51340	83667	7.96e5	8.31e5
52	galene (GeneID 38133)	DRSC08641	1.40e5	2.18e5	2.89e6	2.26e6
53	CG10486 (GeneID 38664)	DRSC09735	1.48e5	1.43e5	1.24e6	1.65e6
54	Cpr67Fa1 + Cpr67Fa2	DRSC28050	5.86e5	9.48e5	1.52e6	1.68e6
55	PpV (GeneID 31582)	DRSC18700	4.70e5	6.06e5	2.64e6	3.31e6
56	PpV (GeneID 31582)	DRSC23307	6.18e5	6.38e5	9.14e5	1.09e6
57	PpV (GeneID 31582)	DRSC29344	5.94e5	4.85e5	1.28e6	1.28e6
58	GluRIB (GeneID 44484)	DRSC10258	2.59e5	2.55e5	3.40e6	2.89e6
59	GluRIB (GeneID 44484)	DRSC11177	2.36e5	2.13e5	2.07e6	9.82e5
60	GluRIB (GeneID 44484)	DRSC25464	5.89e5	5.23e5	5.99e5	4.97e5
